Experimental data from patent US7141541B1, “Use of peptides” (University Court of the University of Dundee, priority 1999, dated 2006).
Results are given in words; binding and its absence hold for the method and conditions named. Some binding calls cover weakened binding; strength is not graded here.

The chains behind the UniProt entries cited, without tags or fusion partners.
UniProt P06730: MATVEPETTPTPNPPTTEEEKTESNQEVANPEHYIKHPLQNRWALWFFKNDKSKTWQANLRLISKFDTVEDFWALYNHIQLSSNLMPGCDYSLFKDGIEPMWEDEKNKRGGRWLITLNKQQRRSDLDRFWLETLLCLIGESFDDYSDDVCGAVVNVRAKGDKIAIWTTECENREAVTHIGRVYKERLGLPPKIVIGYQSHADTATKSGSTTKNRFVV

Molecular target: T1, recombinant human eIF4E (human, UniProt P06730 1-217, limits assumed)
T1 construct: also called in vitro translated human eIF4E; eukaryotic initiation factor 4E
Experiment: in vitro binding, as retold in the text

binding: binds
Binder: RVRYSRDQLLDLRQIKIWFQNRRMKWKK (N-terminal biotin on an N-terminal betaAla (biotinylated peptides of FIG. 12a)) [wheat eIF4G(62-73)-Penetratin]
